Source: paper PMC4218819
Construct, isoform or probe ends are uncertain for at least one entry.

Molecular target: AraR Y5F (Bacillus subtilis) (UniProt P96711)
Assay: EMSA
Conditions: 12 mM HEPES-KOH pH 7.6, 10 mM MgCl2, 200 mM NaCl, 4 mM Na2HPO4, 4 mM NaH2PO4, 0.4 mM EDTA, 1 mM DTT, 0.5% BSA, 10% glycerol, 200-fold poly(dI-dC), 1 nM DNA; recombinant protein; label: 5'-32P; probe letters rebuilt from the primers and the genome

Sequence: GATTGACAGTATAATAGTCAATTACTATAATAAAATTTTTCGTACAAATATTTATTTATAGGTTTATTTTCTATCATTAGTACGTATCTTTTGTATTTGAAAGCGTTTTATTTTATGAGAAAGGG (double strand) [ORA1 G5->T]
- Kd: > 2000 nM
